From PubChem BioAssay AID678 (Vanderbilt High Throughput Screening Facility, 2007)
Hit rate of the full screen: of about 1,700 compounds, about 15 (0.9%) were called active.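 How the source made its calls: active means fluorescence response below the plate's average for near-maximal glutamate wells, less 3 SD of those wells; inactive means the rest.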 The list shows a part of the results, in another mix than the full data.

biological target: Metabotropic glutamate receptor 4 (Homo sapiens) (UniProt Q14833); experiment: mGluR4 calcium signal in M1 antagonist follow-up – cell-based, antagonist mode, secondary assay 1, M1 allosteric modulator project (AID 678); details: CHO-mGluR4 calcium flux, Fluo-4 fluorescence, glutamate EC80; at 10 µM; active compounds read low;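 further: raw unnormalized fluorescence span taken in the window right after glutamate addition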

| Structure (SMILES) | fluorescence response (max-min) |
| --- | --- |
| CCOC(=O)C1SC2(C(F)(F)C(F)F)CC1(O)c1c(c(OC)c3occc3c1OC)O2 (stereo unspecified) | inactive: 232 |
